Measured values from the supplement of paper PMC8728848.
The other results are listed elsewhere or left out.

How the values were obtained:
Test in all cases: glycan array binding signal (z-score within array); higher = stronger binding
Conditions in all cases: glycan notation: IUPAC condensed, linker removed
[1] = molecular target: Gal(a1-3)Gal(b1-4)GlcNAc
Summary of the method: (§1)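 The Consortium for Functional Glycomics database supplied 3228 glycan arrays, of which those lacking an available protein sequence were dropped. The binding signal, a within-array Z-score, was averaged across arrays of the same protein sequence and across linkers. Negative scores can be read as non-binding.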

[2] = molecular target: Gal(a1-3)Gal(b1-4)GlcNAc(b1-2)Man
Summary of the method: as §1

[3] = molecular target: Gal(a1-3)Gal(b1-4)GlcNAc(b1-2)Man(a1-3)[Gal(a1-3)Gal(b1-4)GlcNAc(b1-2)Man(a1-6)]Man(b1-4)GlcNAc(b1-4)GlcNAc
Summary of the method: as §1

[4] = molecular target: Gal(a1-3)Gal(b1-4)GlcNAc(b1-3)GalNAc
Summary of the method: as §1

[5] = molecular target: Gal(a1-3)Gal(b1-4)GlcNAc(b1-6)GalNAc
Summary of the method: as §1

[6] = molecular target: Gal(a1-3)Gal(b1-4)[Fuc(a1-3)]GlcNAc
Summary of the method: as §1

[7] = molecular target: Gal(a1-3)Gal(b1-4)[Fuc(a1-3)]GlcNAc(b1-2)Man(a1-3)[Gal(a1-3)Gal(b1-4)[Fuc(a1-3)]GlcNAc(b1-2)Man(a1-6)]Man(b1-4)GlcNAc(b1-4)GlcNAc
Summary of the method: as §1

[8] = molecular target: Gal(a1-3)GalNAc
Summary of the method: as §1

[9] = molecular target: Gal(a1-3)[Gal(a1-4)]Gal(b1-4)GlcNAc
Summary of the method: as §1

[10] = molecular target: Gal(a1-4)Gal(b1-3)GlcNAc(b1-2)Man(a1-3)[Gal(a1-4)Gal(b1-3)GlcNAc(b1-2)Man(a1-6)]Man(b1-4)GlcNAc(b1-4)GlcNAc
Summary of the method: as §1

[11] = molecular target: Gal(a1-4)Gal(b1-4)Glc
Summary of the method: as §1

[12] = molecular target: Gal(a1-4)Gal(b1-4)GlcNAc
Summary of the method: as §1

[13] = molecular target: Gal(a1-4)Gal(b1-4)GlcNAc(b1-2)Man(a1-3)[Gal(a1-4)Gal(b1-4)GlcNAc(b1-2)Man(a1-6)]Man(b1-4)GlcNAc(b1-4)GlcNAc
Summary of the method: as §1

[14] = molecular target: Gal(a1-4)Gal(b1-4)GlcNAc(b1-3)Gal(b1-4)Glc
Summary of the method: as §1

[15] = molecular target: Gal(a1-4)GlcNAc
Summary of the method: as §1

[16] = molecular target: Gal(a1-6)Glc
Summary of the method: as §1

[17] = molecular target: Gal(b1-2)Gal
Summary of the method: as §1

[18] = molecular target: Gal(b1-3)Gal
Summary of the method: as §1

[19] = molecular target: Gal(b1-3)Gal(b1-4)GlcNAc
Summary of the method: as §1

[20] = molecular target: Gal(b1-3)GalNAc
Summary of the method: as §1

[21] = molecular target: Gal(b1-3)GalNAc(a1-3)[Fuc(a1-2)]Gal(b1-4)Glc
Summary of the method: as §1

[22] = molecular target: Gal(b1-3)GalNAc(a1-3)[Fuc(a1-2)]Gal(b1-4)GlcNAc
Summary of the method: as §1

[23] = molecular target: Gal(b1-3)GalNAc(b1-3)Gal
Summary of the method: as §1

[24] = molecular target: Gal(b1-3)GalNAc(b1-3)Gal(a1-4)Gal(b1-4)Glc
Summary of the method: as §1

[25] = molecular target: Gal(b1-3)GalNAc(b1-4)Gal(b1-4)Glc
Summary of the method: as §1

[26] = molecular target: Gal(b1-3)GalNAc(b1-4)[Neu5Ac(a2-3)]Gal(b1-4)Glc
Summary of the method: as §1

[27] = molecular target: Gal(b1-3)GlcNAc
Summary of the method: as §1

[28] = molecular target: Gal(b1-3)GlcNAc(a1-3)Gal(b1-4)GlcNAc
Summary of the method: as §1

[29] = molecular target: Gal(b1-3)GlcNAc(a1-6)Gal(b1-4)GlcNAc
Summary of the method: as §1

[30] = molecular target: Gal(b1-3)GlcNAc(b1-2)Man
Summary of the method: as §1

[31] = molecular target: Gal(b1-3)GlcNAc(b1-2)Man(a1-3)[Gal(b1-3)GlcNAc(b1-2)Man(a1-6)]Man(b1-4)GlcNAc(b1-4)GlcNAc
Summary of the method: as §1

[32] = molecular target: Gal(b1-3)GlcNAc(b1-2)Man(a1-3)[Gal(b1-3)GlcNAc(b1-2)Man(a1-6)]Man(b1-4)GlcNAc(b1-4)[Fuc(a1-6)]GlcNAc
Summary of the method: as §1

[33] = molecular target: Gal(b1-3)GlcNAc(b1-2)Man(a1-3)[GlcNAc(b1-4)][Gal(b1-3)GlcNAc(b1-2)Man(a1-6)]Man(b1-4)GlcNAc(b1-4)GlcNAc
Summary of the method: as §1

[34] = molecular target: Gal(b1-3)GlcNAc(b1-2)[Gal(b1-3)GlcNAc(b1-6)]Man(a1-6)[Gal(b1-3)GlcNAc(b1-2)Man(a1-3)]Man(b1-4)GlcNAc(b1-4)GlcNAc
Summary of the method: as §1

[35] = molecular target: Gal(b1-3)GlcNAc(b1-3)Gal(b1-3)GlcNAc
Summary of the method: as §1

[36] = molecular target: Gal(b1-3)GlcNAc(b1-3)Gal(b1-4)Glc
Summary of the method: as §1

[37] = molecular target: Gal(b1-3)GlcNAc(b1-3)Gal(b1-4)GlcNAc
Summary of the method: as §1

B1: AT1G77380(17) (Arabidopsis thaliana), Q39134 (protein)
chain: MVQNHQTVLAVDMPQTGGSKYLDDDGKNKRTGSVWTASAHIITAVIGSGVLSLAWATAQLGWLAGPVVMLLFSAVTYFTSSLLAACYRSGDPISGKRNYTYMDAVRSNLGGVKVTLCGIVQYLNIFGVAIGYTIASAISMMAIKRSNCFHKSGGKDPCHMNSNPYMIAFGLVQILFSQIPDFDQLWWLSILAAVMSFTYSSAGLALGIAQVVVNGKVKGSLTGISIGAVTETQKIWRTFQALGDIAFAYSYSIILIEIQDTVKSPPSEEKTMKKATLVSVSVTTMFYMLCGCMGYAAFGDLSPGNLLTGFGFYNPYWLLDIANAAIVIHLIGAYQVYCQPLFAFIEKQASIQFPDSEFIAKDIKIPIPGFKPLRLNVFRLIWRTVFVIITTVISMLLPFFNDVVGLLGALGFWPLTVYFPVEMYIAQKKIPRWSTRWVCLQVFSLGCLVVSIAAAAGSIAGVLLDLKSYKPFRSEY
- glycan array binding signal (z-score) [1]: -0.02
- glycan array binding signal (z-score) [2]: -0.461
- glycan array binding signal (z-score) [3]: -0.526
- glycan array binding signal (z-score) [4]: -0.346
- glycan array binding signal (z-score) [5]: -0.872
- glycan array binding signal (z-score) [6]: -0.879
- glycan array binding signal (z-score) [7]: -0.4
- glycan array binding signal (z-score) [8]: 0.76
- glycan array binding signal (z-score) [9]: 3.09
- glycan array binding signal (z-score) [10]: -0.488
- glycan array binding signal (z-score) [11]: 0.279
- glycan array binding signal (z-score) [12]: 1.77
- glycan array binding signal (z-score) [13]: -0.216
- glycan array binding signal (z-score) [14]: 0.103
- glycan array binding signal (z-score) [15]: -0.902
- glycan array binding signal (z-score) [16]: -0.766
- glycan array binding signal (z-score) [17]: 0.081
- glycan array binding signal (z-score) [18]: -0.551
- glycan array binding signal (z-score) [19]: -0.745
- glycan array binding signal (z-score) [20]: -0.583
- glycan array binding signal (z-score) [21]: -0.417
- glycan array binding signal (z-score) [22]: -0.895
- glycan array binding signal (z-score) [23]: -0.955
- glycan array binding signal (z-score) [24]: 0.619
- glycan array binding signal (z-score) [25]: 0.424
- glycan array binding signal (z-score) [26]: -0.62
- glycan array binding signal (z-score) [27]: -0.594
- glycan array binding signal (z-score) [28]: -0.335
- glycan array binding signal (z-score) [29]: 0.828
- glycan array binding signal (z-score) [30]: 0.434
- glycan array binding signal (z-score) [31]: -0.421
- glycan array binding signal (z-score) [32]: 3.2
- glycan array binding signal (z-score) [33]: 0.236
- glycan array binding signal (z-score) [34]: 1.48
- glycan array binding signal (z-score) [35]: -0.204
- glycan array binding signal (z-score) [36]: 0.098
- glycan array binding signal (z-score) [37]: -0.732
